Reference: PMC10450579, “A biophysical framework for double-drugging kinases” (Proceedings of the National Academy of Sciences of the …, 2023)
No constants are given. Whether binding was seen depends on the method and setting. Binding calls can cover weak binding; strength is not graded here.

The chains behind the UniProt entries cited, without tags or fusion partners. Where a name states a change or a piece, a line headed by the entry shows the natural chain unless it says otherwise.
UniProt P00519: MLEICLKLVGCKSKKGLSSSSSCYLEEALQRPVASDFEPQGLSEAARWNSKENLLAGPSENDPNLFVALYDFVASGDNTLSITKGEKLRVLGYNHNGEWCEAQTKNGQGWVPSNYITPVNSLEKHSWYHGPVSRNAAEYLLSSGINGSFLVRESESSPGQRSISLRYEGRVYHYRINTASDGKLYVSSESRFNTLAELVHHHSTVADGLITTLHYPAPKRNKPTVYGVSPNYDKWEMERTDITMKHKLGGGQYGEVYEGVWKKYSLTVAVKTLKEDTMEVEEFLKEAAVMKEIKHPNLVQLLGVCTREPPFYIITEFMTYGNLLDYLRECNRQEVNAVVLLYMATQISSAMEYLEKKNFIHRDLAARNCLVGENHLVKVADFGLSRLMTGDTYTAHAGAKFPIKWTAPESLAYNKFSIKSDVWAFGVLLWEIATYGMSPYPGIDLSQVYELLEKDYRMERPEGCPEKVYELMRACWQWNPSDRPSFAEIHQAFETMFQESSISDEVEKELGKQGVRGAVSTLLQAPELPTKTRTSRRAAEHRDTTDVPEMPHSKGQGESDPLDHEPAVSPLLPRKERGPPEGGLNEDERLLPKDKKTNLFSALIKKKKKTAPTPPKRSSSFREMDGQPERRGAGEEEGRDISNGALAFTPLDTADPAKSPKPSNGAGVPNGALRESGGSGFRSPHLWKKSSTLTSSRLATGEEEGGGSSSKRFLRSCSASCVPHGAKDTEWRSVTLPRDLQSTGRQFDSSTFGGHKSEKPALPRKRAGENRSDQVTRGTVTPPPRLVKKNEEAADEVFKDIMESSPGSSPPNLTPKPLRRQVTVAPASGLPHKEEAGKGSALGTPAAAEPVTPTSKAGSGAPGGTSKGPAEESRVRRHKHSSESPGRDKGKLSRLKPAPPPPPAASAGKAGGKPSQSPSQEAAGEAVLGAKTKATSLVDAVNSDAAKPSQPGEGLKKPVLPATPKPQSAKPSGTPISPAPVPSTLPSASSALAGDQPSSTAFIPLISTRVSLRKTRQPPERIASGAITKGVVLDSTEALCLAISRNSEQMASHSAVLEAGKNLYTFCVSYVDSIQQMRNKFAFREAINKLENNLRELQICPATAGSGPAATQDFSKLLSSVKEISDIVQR

Legend:
[1] = target: AblKD (Abl kinase domain, residues 229 to 510) (UniProt P00519); test: ITC; competitive replacement ITC: N-Myr peptide as the weak-binding ligand replaced by asciminib; 50 mM Tris-HCl, 500 mM NaCl, 1 mM TCEP, pH 8.0, 5% DMSO, 25 °C; both purified
[2] = target: SH3-SH2-KD Abl (Abl_(64–510)) (UniProt P00519); test: as above

With GQQPGKVLGDQR (myristoyl (Myr-) on the N-terminus) [N-Myr peptide (Myr-…)] the binding [1] was “binds weakly” and the binding [2] was “binds weakly”.
